Source: US20230143612A1 (Arbutus Biopharma Corporation, priority 2020, published 2023)

Sequences of proteins named here, by UniProt entry; tags and fusion partners are left off. Residues count along the entry.
UniProt Q9NZQ7, 19-238 limits assumed: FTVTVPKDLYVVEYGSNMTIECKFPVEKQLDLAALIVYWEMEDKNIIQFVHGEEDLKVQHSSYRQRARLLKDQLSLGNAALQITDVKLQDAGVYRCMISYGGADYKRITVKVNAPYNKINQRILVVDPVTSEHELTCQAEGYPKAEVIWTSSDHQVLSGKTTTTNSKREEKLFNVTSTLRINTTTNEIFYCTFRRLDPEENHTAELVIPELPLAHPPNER

Molecular target: PD-L1 His protein / PD-1 Fc protein (Homo sapiens, UniProt Q9NZQ7)
Test: HTRF Assay (PD-1/PD-L1 interaction)
Conditions: read-out: PD-L1 HTRF IC50; PD-L1 His 6 nM, PD-1 Fc 6 nM
Procedure: PD-L1 His protein was prepared and added at the final concentration of 6 nM in the White opaque 384 well plate (Corning cat #3824BC). PD-L1 small molecule inhibitors were diluted by 3-fold starting from 20 μM and a final concentration of 0.001 μM and added to the well. PD-1 Fc protein was added at the final concentration of 6 nM. PD-L1 His protein, PD-L1 small molecule inhibitors, and PD1 Fc proteins were added to the well in this order, with each 5 μl volume, and were incubated for 15 minutes at room temperature. PAb anti-Human IgG-XL665 (Cisbio, cat #61HFCXLA) and Mab anti-6HIS Tb cryptate Gold (Cisbio, cat #61HI2TLA) were mixed at 6.7 nM and 0.35 nM respectively, and total 5 μl volume of mixture was added to the well and incubated at room temperature for 1 hour. The plate was read using PerkinElmer Envision plate reader and data was analyzed by Prism 6 software.

Compound: Cc1c(OCc2cc(OCc3cncc(C#N)c3)c(CNC[C@@H]3CCC(=O)N3)cc2Cl)cccc1-c1cccc(-c2ccn3c(=O)c(CNC[C@@H]4CCC(=O)N4)cnc3c2)c1C
- IC50: 13 nM

Compound: Cc1c(OCc2cc(OCc3cncc(C#N)c3)c(CNCCO)cc2Cl)cccc1-c1cccc(-c2ccn3c(=O)c(CNCCO)cnc3c2)c1C
- IC50: 4.8 nM

The structures given here were assigned with low confidence; some may be wrong.
